The target in the test is T1, GSDMD, mouse, endogenous in bone marrow neutrophils (precipitated with anti-GSDMD) (mouse (endogenous in bone marrow neutrophils)) (UniProt Q9D8T2).
T1 sequence: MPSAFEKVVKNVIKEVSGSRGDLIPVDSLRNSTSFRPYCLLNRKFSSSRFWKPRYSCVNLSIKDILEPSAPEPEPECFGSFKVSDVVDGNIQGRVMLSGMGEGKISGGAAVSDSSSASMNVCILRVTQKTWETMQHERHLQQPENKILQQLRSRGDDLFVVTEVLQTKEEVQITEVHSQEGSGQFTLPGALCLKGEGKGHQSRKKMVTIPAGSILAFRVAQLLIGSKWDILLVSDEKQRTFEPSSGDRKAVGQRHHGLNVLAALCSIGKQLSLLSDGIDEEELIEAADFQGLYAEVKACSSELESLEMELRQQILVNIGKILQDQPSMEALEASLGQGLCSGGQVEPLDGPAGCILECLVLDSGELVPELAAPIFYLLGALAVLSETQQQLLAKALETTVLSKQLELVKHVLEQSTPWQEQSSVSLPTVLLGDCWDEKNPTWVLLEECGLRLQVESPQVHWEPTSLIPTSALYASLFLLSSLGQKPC
Nature of the test: co-IP; lysate of bone marrow neutrophils (NP40 buffer) after IFN-γ plus lupus serum for 12 h, with or without Mito-TEMPO; precipitated with anti-GSDMD and protein A/G agarose, washed with NETN300 and NETN100, blotted for TOMM20 and GSDMD.

By UniProt entry, the sequences of proteins in these tests, tags left out.
UniProt Q9DCC8: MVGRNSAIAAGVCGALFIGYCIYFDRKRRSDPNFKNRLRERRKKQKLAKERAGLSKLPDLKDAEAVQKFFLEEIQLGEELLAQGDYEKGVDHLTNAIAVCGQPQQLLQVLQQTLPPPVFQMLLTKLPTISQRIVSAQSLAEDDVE

These are yes or no findings as the source states them, for the method shown. In cells and extracts the contact can be indirect. Some entries that bind do so weakly or less than the wild type.

“translocase of outer mitochondrial membrane 20 (TOMM20), mouse, endogenous in bone marrow neutrophils (from UniProt Q9DCC8 1-145)”: the binding entry is reported as “binds”.

(Values after publication PMC9935630.)
